Measurements from US10669637B2, “Purine-based corrosion inhibitors” (Ecolab USA Inc., priority 2015, dated 2020).
Some entries share one result that the patent states for a list of compounds.

Experiment: Copper corrosion rate by linear polarization resistance
Settings: copper coupons, 5 ppm inhibitor, pH 7.0, 45° C.; for No FRC Corrosion Rate (mpy): absence of bleach, average over 20 to 24 hour period
Experimental: In addition, the corrosion rate of copper in the presence of benzimidazole, tolyltriazole, imidazole, pyrimidine, 6,6-dimethyladenine, and 6-methylpurine was determined using linear polarization resistance measurements. […] For each experiment, cylindrical copper coupons pre-polished using SIC 600 paper and fitted on a Pine rotator were immersed in a solution of corrosion inhibitor. […] The pH of the test water was maintained at 7.0 using carbon dioxide, and the water temperature was maintained at 45° C. throughout the experiment. […] Density: 8.92 g/cm^3; Copper Eq. Weight: 63.54 g; and Initial delay: 30 seconds. Next, the copper samples were exposed to a 25% bleach solution. […] The Rp in the absence and presence of bleach was collected and analyzed, and the average corrosion rate was calculated and recorded in Table 1. Corrosion rates were calculated in mils per year (mpy).

| Compound | No FRC Corrosion Rate (mpy) (listed as compound 5) | No FRC Corrosion Rate (mpy) (listed as compound 3) | 1 ppm FRC Corrosion Rate (mpy) (bleach maintained at 1 ppm FRC, listed as 6-chloropurine) |
| --- | --- | --- | --- |
| Nc1ncnc2nc[nH]c12 [Compound 5, Adenine] | less than 0.2 mpy | – | – |
| Clc1ncnc2nc[nH]c12 [Compound 3, 6-Chloropurine] | – | less than 0.2 mpy | below 0.2 mpy |
